From patent US9738657B2, “Highly efficient polarizing agents for dynamic nuclear polarization” (Bruker Biospin S.A.S., priority 2013, dated 2017)

How the values were obtained:
[1] = 1H DNP signal enhancement, 1H-13C cross polarization with and without microwave irradiation; details: 97 K, 8 kHz MAS, 10 mM biradical, 0.25 M 13C-15N Proline in glycerol-d8/D2O/H2O (60/30/10); for 263 GHz DNP ε (1H DNP signal enhancement): 9.4 T; for 395 GHz DNP ε (1H DNP signal enhancement): 14.1 T
[2] = Polarization build-up time Tpol, saturation recovery with continuous microwave irradiation; details: 97 K, 8 kHz MAS, 10 mM biradical, 0.25 M 13C-15N Proline in glycerol-d8/D2O/H2O (60/30/10); for 263 GHz Tpol (polarization build-up time): 9.4 T; for 395 GHz Tpol (polarization build-up time): 14.1 T

Compound: 4,4-ureylene-di-(2,2,6,6-tetramethylpiperidinyloxyl) [bTUrea, reference compound]
- 263 GHz DNP ε (1H DNP signal enhancement) [1]: 62
- 263 GHz Tpol (polarization build-up time) [2]: 16.5 s

Compound: [O]N1C2(CCOCC2)CC(NC(=O)NC2CC3(CCOCC3)N([O])C3(CCOCC3)C2)CC12CCOCC2 (stereo not shown) [Compound 56, (15-{[(7-Oxyl-3,11-dioxa-7-azadispiro[5.1.5.3]hexadec-15-yl)carbamoyl]amino}-[3,11-dioxa-7-azadispiro[5.1.5.3]hexadec-7-yl])oxidanyl]
- 263 GHz DNP ε (1H DNP signal enhancement) [1]: 207
- 395 GHz DNP ε (1H DNP signal enhancement) [1]: 128
- 263 GHz Tpol (polarization build-up time) [2]: 5.7 s
- 395 GHz Tpol (polarization build-up time) [2]: 8.7 s

Compound: [O]N1C2(CCOCC2)CC(N2CC(O)CN(C3CC4(CCOCC4)N([O])C4(CCOCC4)C3)C2=O)CC12CCOCC2 (stereo not shown) [Compound 69, 5-Hydroxy-1,3-bis(7-oxyl-3,11-dioxa-7-azadispiro[5.1.5.3]-hexadec-15-yl)tetrahydropyrimidin-2(1H)-one]
- 263 GHz DNP ε (1H DNP signal enhancement) [1]: 290
- 395 GHz DNP ε (1H DNP signal enhancement) [1]: 160

Compound: COCCOCCOCCOCCOC1CN(C2CC3(CCOCC3)N([O])C3(CCOCC3)C2)C(=O)N(C2CC3(CCOCC3)N([O])C3(CCOCC3)C2)C1 (stereo not shown) [Compound 70, 1,3-Bis(7-oxyl-3,11-dioxa-7-azadispiro[5.1.5.3]hexadec-15-yl)-5-(2,5,8,11-tetraoxatridecan-13-yloxy)tetrahydropyrimidin-2(1H)-one]
- 263 GHz DNP ε (1H DNP signal enhancement) [1]: 278
- 395 GHz DNP ε (1H DNP signal enhancement) [1]: 138

Compound: O=C(NC1CC2(CCOCC2)N(O)C2(CCOCC2)C1)N(CCOCCO)C1CC2(CCOCC2)N(O)C2(CCOCC2)C1 (stereo not shown) [Compound 71, (15-{[(7-Oxyl-3,11-dioxa-7-azadispiro[5.1.5.3]hexadec-15-yl)carbamoyl][2-(2-hydroxyethoxy)ethyl]amino}-[3,11-dioxa-7-azadispiro[5.1.5.3]hexadec-7-yl])oxidanyl]
- 263 GHz DNP ε (1H DNP signal enhancement) [1]: 303

Compound: (4-{(2,5,8,11-tetraoxatridecan-13-yl)[(1-oxyl-2,2,6,6-tetramethyl piperidin-4-yl)carbamoyl]amino}-2,2,6,6-tetramethylpiperidin-1-yl)oxidanyl [Compound 52]
- 263 GHz DNP ε (1H DNP signal enhancement) [1]: 120

Compound: (4-{[2-(2-methoxyethoxy)ethyl][(1-oxyl-2,2,6,6-tetramethylpiperidin-4-yl)carbamoyl]amino}-2,2,6,6-tetramethylpiperidin-1-yl)oxidanyl [Compound 51]
- 263 GHz DNP ε (1H DNP signal enhancement) [1]: 120
- 395 GHz DNP ε (1H DNP signal enhancement) [1]: 81
- 263 GHz Tpol (polarization build-up time) [2]: 5.6 s
- 395 GHz Tpol (polarization build-up time) [2]: 7.7 s
